This is one part of the list. Only a few entries rise above the background.
Columns and labels:
Assay in all cases: fluorescence intensity of antibody binding to polysaccharide-coupled beads; higher = stronger binding
[1] = molecular target: pneumococcal polysaccharide Pn44
[2] = molecular target: pneumococcal polysaccharide Pn45
[3] = molecular target: pneumococcal polysaccharide Pn46
[4] = molecular target: pneumococcal polysaccharide Pn47A
[5] = molecular target: pneumococcal polysaccharide Pn47F
[6] = molecular target: pneumococcal polysaccharide Pn48
[7] = molecular target: pneumococcal polysaccharide Pn5
[8] = molecular target: pneumococcal polysaccharide Pn6A
[9] = molecular target: pneumococcal polysaccharide Pn6B
[10] = molecular target: pneumococcal polysaccharide Pn6C
[11] = molecular target: pneumococcal polysaccharide Pn6D
[12] = molecular target: pneumococcal polysaccharide Pn7A
[13] = antibody concentration 0.1 ng/mL
[14] = antibody concentration 0.534724 ng/mL
[15] = antibody concentration 2.8593 ng/mL
[16] = antibody concentration 15.2894 ng/mL
[17] = antibody concentration 81.7561 ng/mL
[18] = antibody concentration 437.17 ng/mL
[19] = antibody concentration 2337.65 ng/mL
[20] = antibody concentration 12500 ng/mL

B1: 4-99.1 (protein)
chain 1: QVQLQESGPGLVKPSETLSLTCAVSGDSISSGYFWGWIRQPPGKGLEYIGYISGESGNTYDNPSLKSRVTISKDTSKNQFSLNLRSVTAADTAVYYCARRTVYIGFDYWGQGVLVTVSS
chain 2: QAAPTQPPSVSGSPGQSVTISCTGTSSDIGYYNAVSWYQQHPGKAPKLMIYEVSKRPSGVSDRFSGSKSGTTASLTISGLQAEDEADYYCSSYAGTNTYIFGAGTRLTVL
B1 was tested. Which fluorescence intensity [1, 13] did it give?
The fluorescence intensity was 25.5 MFI.

And the fluorescence intensity [1, 14]?
The fluorescence intensity was 24 MFI.

What about the fluorescence intensity [1, 15] of the same binder?
Its fluorescence intensity is 23.5 MFI.

And the fluorescence intensity [1, 16]?
Its fluorescence intensity is 25.5 MFI.

And the fluorescence intensity [1, 17]?
The fluorescence intensity was 25.2 MFI.

What about the fluorescence intensity [1, 18] of the same binder?
The fluorescence intensity was 26.8 MFI.

And the fluorescence intensity [1, 19]?
Its fluorescence intensity is 28 MFI.

And the fluorescence intensity [1, 20]?
Its fluorescence intensity is 38 MFI.

And the fluorescence intensity [2, 13]?
Its fluorescence intensity is 11 MFI.

And the fluorescence intensity [2, 14]?
Its fluorescence intensity is 11.5 MFI.

What about the fluorescence intensity [2, 15] of the same binder?
Its fluorescence intensity is 11.5 MFI.

And the fluorescence intensity [2, 16]?
Its fluorescence intensity is 11 MFI.

And the fluorescence intensity [2, 17]?
The fluorescence intensity was 10 MFI.

What about the fluorescence intensity [2, 18] of the same binder?
Its fluorescence intensity is 12.5 MFI.

What about the fluorescence intensity [2, 19] of the same binder?
The fluorescence intensity was 14.8 MFI.

What about the fluorescence intensity [2, 20] of the same binder?
Its fluorescence intensity is 18.5 MFI.

And the fluorescence intensity [3, 13]?
Its fluorescence intensity is 24 MFI.

What about the fluorescence intensity [3, 14] of the same binder?
The fluorescence intensity was 24 MFI.

And the fluorescence intensity [3, 15]?
The fluorescence intensity was 23 MFI.

What about the fluorescence intensity [3, 16] of the same binder?
The fluorescence intensity was 23.8 MFI.

What about the fluorescence intensity [3, 17] of the same binder?
The fluorescence intensity was 23.5 MFI.

And the fluorescence intensity [3, 18]?
Its fluorescence intensity is 26.5 MFI.

What about the fluorescence intensity [3, 19] of the same binder?
The fluorescence intensity was 31 MFI.

And the fluorescence intensity [3, 20]?
The fluorescence intensity was 149 MFI.

What about the fluorescence intensity [4, 13] of the same binder?
The fluorescence intensity was 15.2 MFI.

And the fluorescence intensity [4, 14]?
Its fluorescence intensity is 16.5 MFI.

What about the fluorescence intensity [4, 15] of the same binder?
Its fluorescence intensity is 16 MFI.

What about the fluorescence intensity [4, 16] of the same binder?
The fluorescence intensity was 16 MFI.

What about the fluorescence intensity [4, 17] of the same binder?
Its fluorescence intensity is 15.5 MFI.

What about the fluorescence intensity [4, 18] of the same binder?
The fluorescence intensity was 17 MFI.

And the fluorescence intensity [4, 19]?
The fluorescence intensity was 17.5 MFI.

And the fluorescence intensity [4, 20]?
Its fluorescence intensity is 40 MFI.

And the fluorescence intensity [5, 13]?
Its fluorescence intensity is 10.5 MFI.

And the fluorescence intensity [5, 14]?
The fluorescence intensity was 13.2 MFI.

And the fluorescence intensity [5, 15]?
Its fluorescence intensity is 11.5 MFI.

What about the fluorescence intensity [5, 16] of the same binder?
The fluorescence intensity was 11.5 MFI.

And the fluorescence intensity [5, 17]?
Its fluorescence intensity is 13 MFI.

And the fluorescence intensity [5, 18]?
The fluorescence intensity was 12.5 MFI.

What about the fluorescence intensity [5, 19] of the same binder?
Its fluorescence intensity is 18.2 MFI.

What about the fluorescence intensity [5, 20] of the same binder?
Its fluorescence intensity is 130 MFI.

And the fluorescence intensity [6, 13]?
The fluorescence intensity was 22.5 MFI.

And the fluorescence intensity [6, 14]?
The fluorescence intensity was 23.2 MFI.

What about the fluorescence intensity [6, 15] of the same binder?
The fluorescence intensity was 21 MFI.

And the fluorescence intensity [6, 16]?
Its fluorescence intensity is 23.5 MFI.

And the fluorescence intensity [6, 17]?
Its fluorescence intensity is 21.2 MFI.

What about the fluorescence intensity [6, 18] of the same binder?
The fluorescence intensity was 26 MFI.

And the fluorescence intensity [6, 19]?
The fluorescence intensity was 36.5 MFI.

And the fluorescence intensity [6, 20]?
Its fluorescence intensity is 45.8 MFI.

And the fluorescence intensity [7, 13]?
The fluorescence intensity was 9.5 MFI.

What about the fluorescence intensity [7, 14] of the same binder?
Its fluorescence intensity is 9.5 MFI.

And the fluorescence intensity [7, 15]?
Its fluorescence intensity is 9 MFI.

And the fluorescence intensity [7, 16]?
The fluorescence intensity was 9.5 MFI.

What about the fluorescence intensity [7, 17] of the same binder?
Its fluorescence intensity is 8.5 MFI.

What about the fluorescence intensity [7, 18] of the same binder?
Its fluorescence intensity is 11 MFI.

What about the fluorescence intensity [7, 19] of the same binder?
The fluorescence intensity was 19.5 MFI.

What about the fluorescence intensity [7, 20] of the same binder?
The fluorescence intensity was 162 MFI.

What about the fluorescence intensity [8, 13] of the same binder?
Its fluorescence intensity is 21.5 MFI.

And the fluorescence intensity [8, 14]?
The fluorescence intensity was 21 MFI.

What about the fluorescence intensity [8, 15] of the same binder?
Its fluorescence intensity is 23 MFI.

What about the fluorescence intensity [8, 16] of the same binder?
Its fluorescence intensity is 20.5 MFI.

What about the fluorescence intensity [8, 17] of the same binder?
The fluorescence intensity was 23 MFI.

And the fluorescence intensity [8, 18]?
Its fluorescence intensity is 25 MFI.

What about the fluorescence intensity [8, 19] of the same binder?
Its fluorescence intensity is 29 MFI.

And the fluorescence intensity [8, 20]?
The fluorescence intensity was 33.8 MFI.

What about the fluorescence intensity [9, 13] of the same binder?
The fluorescence intensity was 21 MFI.

And the fluorescence intensity [9, 14]?
The fluorescence intensity was 18.5 MFI.

And the fluorescence intensity [9, 15]?
Its fluorescence intensity is 18 MFI.

What about the fluorescence intensity [9, 16] of the same binder?
The fluorescence intensity was 19.2 MFI.

And the fluorescence intensity [9, 17]?
The fluorescence intensity was 20 MFI.

And the fluorescence intensity [9, 18]?
The fluorescence intensity was 20.5 MFI.

What about the fluorescence intensity [9, 19] of the same binder?
The fluorescence intensity was 28.8 MFI.

What about the fluorescence intensity [9, 20] of the same binder?
Its fluorescence intensity is 33.5 MFI.

And the fluorescence intensity [10, 13]?
Its fluorescence intensity is 18.2 MFI.

And the fluorescence intensity [10, 14]?
The fluorescence intensity was 28.5 MFI.

And the fluorescence intensity [10, 15]?
The fluorescence intensity was 67.2 MFI.

And the fluorescence intensity [10, 16]?
The fluorescence intensity was 89 MFI.

And the fluorescence intensity [10, 17]?
Its fluorescence intensity is 73 MFI.

What about the fluorescence intensity [10, 18] of the same binder?
The fluorescence intensity was 90.5 MFI.

And the fluorescence intensity [10, 19]?
Its fluorescence intensity is 75.8 MFI.

And the fluorescence intensity [10, 20]?
The fluorescence intensity was 124 MFI.

And the fluorescence intensity [11, 13]?
Its fluorescence intensity is 18.5 MFI.

And the fluorescence intensity [11, 14]?
Its fluorescence intensity is 16.5 MFI.

And the fluorescence intensity [11, 15]?
The fluorescence intensity was 15.8 MFI.

And the fluorescence intensity [11, 16]?
Its fluorescence intensity is 19 MFI.

What about the fluorescence intensity [11, 17] of the same binder?
Its fluorescence intensity is 19 MFI.

What about the fluorescence intensity [11, 18] of the same binder?
The fluorescence intensity was 17.8 MFI.

And the fluorescence intensity [11, 19]?
The fluorescence intensity was 21 MFI.

What about the fluorescence intensity [11, 20] of the same binder?
Its fluorescence intensity is 26.2 MFI.

What about the fluorescence intensity [12, 13] of the same binder?
The fluorescence intensity was 20 MFI.

What about the fluorescence intensity [12, 14] of the same binder?
Its fluorescence intensity is 20.5 MFI.

From the supplement of paper PMC11438910
